# For at least one compound, name, drawing or mass did not settle the structure.
# Test system: L-929 cells (ATCC CCL-1)
# Assay: Minimal Essential Media (MEM) Elution cytotoxicity test
# Format: cell-based
# Conditions: Table 9A; for Scores #1, #2, #3: three wells
# Experimental: Summary: The Minimal Essential Media (MEM) Elution test was designed to determine the cytotoxicity of extractable substances. The test article was added to cell monolayers and incubated. The cell monolayers were examined and scored based on the degree of cellular destruction.
# Acceptance Criteria: The United States Pharmacopeia & National Formulary (USP <87>) states that the test article meets the requirements, or receives a passing score (Pass) if the reactivity grade is not greater than grade 2 or a mild reactivity.
# Acceptance criteria were based upon the negative and media controls receiving “0” reactivity grades and positive controls receiving a 3-4 reactivity grades (moderate to severe).
# The cell monolayers were examined microscopically. The wells were scored as to the degree of discernable morphological cytotoxicity on a relative scale of 0 to 4:
# The results from the three wells were averaged to give a final cytotoxicity score.
# […] This initial concentration was then diluted 1: 2, 1:4, 1:8, and 1:16. Multiple well cell culture plates were seeded with a verified quantity of industry standard L-929 cells (ATCC CCL-1) and incubated until approximately 80% confluent. The test articles and control extracts were added to the cell monolayers in triplicate. The cells were incubated at 37±1° C. with 5±1% CO2 for 48±3 hours.
smiles,measurement,setting,value
"N=C(NCCCCCCNC(=N)NC(=N)Nc1ccc(Cl)cc1)NC(=N)Nc1ccc(Cl)cc1.O=C(O)[C@H](O)[C@@H](O)[C@H](O)[C@H](O)CO.O=C(O)[C@H](O)[C@@H](O)[C@H](O)[C@H](O)CO [chlorhexidine gluconate, reference compound]",Scores Average,3.125 μg/mL,0
same,"Scores #1, #2, #3",3.125 μg/mL,0
same,Scores Average,6.25 μg/mL,0
same,"Scores #1, #2, #3",6.25 μg/mL,0
same,Scores Average,12.5 μg/mL,"2 (Not more than 50% rounding, no extensive cell lysis. Mild)"
same,"Scores #1, #2, #3",12.5 μg/mL,"2 (Not more than 50% rounding, no extensive cell lysis. Mild)"
same,Scores Average,25 μg/mL,4
same,"Scores #1, #2, #3",25 μg/mL,4
same,Scores Average,1.563 (unit not given),0
same,"Scores #1, #2, #3",1.563 (unit not given),0

# Source: US10440955B2, “Methods comprising a biocidal polyamine” (Curza Global, LLC, priority 2013, dated 2019)
